Experimental data: PubChem BioAssay AID328 (DTP/NCI, 2004)
The list does not hold the whole screen: it covers a few groups of compounds. Not every dose and run of a compound is shown. T/C gives the treated animals as a percentage of the vehicle group. Where survival is the endpoint, this PubChem deposit counts one and a half times the control or more as active, and values a quarter to a half above the control carry no call in these data; other NCI protocols may use other cut-offs. Schedules are NCI's codes, taken here to give the interval after Q, in days (D) or hours (H), and the number of doses after X. Some T/C values are marked as having no survivor count here; that says nothing about deaths at the dose.

Test system: BDF1 mice, P388 leukemia ip, median survival T/C
Assay: NCI In Vivo Anticancer Drug Screen. Data for tumor model P388 Leukemia (intraperitoneal) in B6D2F1 (BDF1) mice
Conditions: T/C endpoint: median survival time, higher T/C = longer survival
Procedure, shortened: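 Mice carrying the transplantable tumour receive compound or vehicle. Survival is followed in each arm, and the treated measure is divided by the vehicle measure.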

Row | Structure (SMILES) | T/C (dose: 1.17 mg/kg/injection, schedule: Q04DX003 (ip), vehicle: saline + alcohol) | T/C (dose: 540.0 micrograms/kg/injection, schedule: Q04DX003 (ip), vehicle: other) | T/C (dose: 900.0 micrograms/kg/injection, schedule: Q04DX003 (ip), vehicle: other) | T/C (dose: 5.0 mg/kg/injection, schedule: Q04DX002 (ip), vehicle: saline + alcohol) | T/C (dose: 10.0 mg/kg/injection, schedule: Q04DX002 (ip), vehicle: saline + alcohol) | T/C (dose: 20.0 mg/kg/injection, schedule: Q04DX002 (ip), vehicle: saline + alcohol) | T/C (dose: 40.0 mg/kg/injection, schedule: Q04DX002 (ip), vehicle: saline + alcohol)
1 | CC1=C[C@H]2O[C@@H]3C[C@H]4OC(=O)/C=C\C=C\C(C(C)O)OCC(O)C(C)CC(=O)OC[C@@]2(C[C@@H]1O)[C@]4(C)[C@@]31CO1 (some centres not stated) | 107 % of control [survivor count not shown] | 162 % of control [survivor count not shown] | 187 % of control [survivor count not shown] | – | – | – | –
2 | CC(=O)OCC12CCC(C)CC1O[C@H]1[C@@H](O)[C@H](OC(C)=O)[C@]2(C)[C@@]12CO2 (some centres not stated) | – | – | – | 89 % of control [survivor count not shown] | 105 % of control [survivor count not shown] | 105 % of control [survivor count not shown] | 98 % of control [survivor count not shown]
